The values below come from patent US6958321B2, “Isolation, characterization, cloning and use of a mushroom lectin” (The Regents of the University of Michigan, priority 2001, dated 2005).

Sequences of proteins named here, by UniProt entry; tags and fusion partners are left off. A change or cut given only in a name is not applied to a line headed by its entry.
UniProt P19137: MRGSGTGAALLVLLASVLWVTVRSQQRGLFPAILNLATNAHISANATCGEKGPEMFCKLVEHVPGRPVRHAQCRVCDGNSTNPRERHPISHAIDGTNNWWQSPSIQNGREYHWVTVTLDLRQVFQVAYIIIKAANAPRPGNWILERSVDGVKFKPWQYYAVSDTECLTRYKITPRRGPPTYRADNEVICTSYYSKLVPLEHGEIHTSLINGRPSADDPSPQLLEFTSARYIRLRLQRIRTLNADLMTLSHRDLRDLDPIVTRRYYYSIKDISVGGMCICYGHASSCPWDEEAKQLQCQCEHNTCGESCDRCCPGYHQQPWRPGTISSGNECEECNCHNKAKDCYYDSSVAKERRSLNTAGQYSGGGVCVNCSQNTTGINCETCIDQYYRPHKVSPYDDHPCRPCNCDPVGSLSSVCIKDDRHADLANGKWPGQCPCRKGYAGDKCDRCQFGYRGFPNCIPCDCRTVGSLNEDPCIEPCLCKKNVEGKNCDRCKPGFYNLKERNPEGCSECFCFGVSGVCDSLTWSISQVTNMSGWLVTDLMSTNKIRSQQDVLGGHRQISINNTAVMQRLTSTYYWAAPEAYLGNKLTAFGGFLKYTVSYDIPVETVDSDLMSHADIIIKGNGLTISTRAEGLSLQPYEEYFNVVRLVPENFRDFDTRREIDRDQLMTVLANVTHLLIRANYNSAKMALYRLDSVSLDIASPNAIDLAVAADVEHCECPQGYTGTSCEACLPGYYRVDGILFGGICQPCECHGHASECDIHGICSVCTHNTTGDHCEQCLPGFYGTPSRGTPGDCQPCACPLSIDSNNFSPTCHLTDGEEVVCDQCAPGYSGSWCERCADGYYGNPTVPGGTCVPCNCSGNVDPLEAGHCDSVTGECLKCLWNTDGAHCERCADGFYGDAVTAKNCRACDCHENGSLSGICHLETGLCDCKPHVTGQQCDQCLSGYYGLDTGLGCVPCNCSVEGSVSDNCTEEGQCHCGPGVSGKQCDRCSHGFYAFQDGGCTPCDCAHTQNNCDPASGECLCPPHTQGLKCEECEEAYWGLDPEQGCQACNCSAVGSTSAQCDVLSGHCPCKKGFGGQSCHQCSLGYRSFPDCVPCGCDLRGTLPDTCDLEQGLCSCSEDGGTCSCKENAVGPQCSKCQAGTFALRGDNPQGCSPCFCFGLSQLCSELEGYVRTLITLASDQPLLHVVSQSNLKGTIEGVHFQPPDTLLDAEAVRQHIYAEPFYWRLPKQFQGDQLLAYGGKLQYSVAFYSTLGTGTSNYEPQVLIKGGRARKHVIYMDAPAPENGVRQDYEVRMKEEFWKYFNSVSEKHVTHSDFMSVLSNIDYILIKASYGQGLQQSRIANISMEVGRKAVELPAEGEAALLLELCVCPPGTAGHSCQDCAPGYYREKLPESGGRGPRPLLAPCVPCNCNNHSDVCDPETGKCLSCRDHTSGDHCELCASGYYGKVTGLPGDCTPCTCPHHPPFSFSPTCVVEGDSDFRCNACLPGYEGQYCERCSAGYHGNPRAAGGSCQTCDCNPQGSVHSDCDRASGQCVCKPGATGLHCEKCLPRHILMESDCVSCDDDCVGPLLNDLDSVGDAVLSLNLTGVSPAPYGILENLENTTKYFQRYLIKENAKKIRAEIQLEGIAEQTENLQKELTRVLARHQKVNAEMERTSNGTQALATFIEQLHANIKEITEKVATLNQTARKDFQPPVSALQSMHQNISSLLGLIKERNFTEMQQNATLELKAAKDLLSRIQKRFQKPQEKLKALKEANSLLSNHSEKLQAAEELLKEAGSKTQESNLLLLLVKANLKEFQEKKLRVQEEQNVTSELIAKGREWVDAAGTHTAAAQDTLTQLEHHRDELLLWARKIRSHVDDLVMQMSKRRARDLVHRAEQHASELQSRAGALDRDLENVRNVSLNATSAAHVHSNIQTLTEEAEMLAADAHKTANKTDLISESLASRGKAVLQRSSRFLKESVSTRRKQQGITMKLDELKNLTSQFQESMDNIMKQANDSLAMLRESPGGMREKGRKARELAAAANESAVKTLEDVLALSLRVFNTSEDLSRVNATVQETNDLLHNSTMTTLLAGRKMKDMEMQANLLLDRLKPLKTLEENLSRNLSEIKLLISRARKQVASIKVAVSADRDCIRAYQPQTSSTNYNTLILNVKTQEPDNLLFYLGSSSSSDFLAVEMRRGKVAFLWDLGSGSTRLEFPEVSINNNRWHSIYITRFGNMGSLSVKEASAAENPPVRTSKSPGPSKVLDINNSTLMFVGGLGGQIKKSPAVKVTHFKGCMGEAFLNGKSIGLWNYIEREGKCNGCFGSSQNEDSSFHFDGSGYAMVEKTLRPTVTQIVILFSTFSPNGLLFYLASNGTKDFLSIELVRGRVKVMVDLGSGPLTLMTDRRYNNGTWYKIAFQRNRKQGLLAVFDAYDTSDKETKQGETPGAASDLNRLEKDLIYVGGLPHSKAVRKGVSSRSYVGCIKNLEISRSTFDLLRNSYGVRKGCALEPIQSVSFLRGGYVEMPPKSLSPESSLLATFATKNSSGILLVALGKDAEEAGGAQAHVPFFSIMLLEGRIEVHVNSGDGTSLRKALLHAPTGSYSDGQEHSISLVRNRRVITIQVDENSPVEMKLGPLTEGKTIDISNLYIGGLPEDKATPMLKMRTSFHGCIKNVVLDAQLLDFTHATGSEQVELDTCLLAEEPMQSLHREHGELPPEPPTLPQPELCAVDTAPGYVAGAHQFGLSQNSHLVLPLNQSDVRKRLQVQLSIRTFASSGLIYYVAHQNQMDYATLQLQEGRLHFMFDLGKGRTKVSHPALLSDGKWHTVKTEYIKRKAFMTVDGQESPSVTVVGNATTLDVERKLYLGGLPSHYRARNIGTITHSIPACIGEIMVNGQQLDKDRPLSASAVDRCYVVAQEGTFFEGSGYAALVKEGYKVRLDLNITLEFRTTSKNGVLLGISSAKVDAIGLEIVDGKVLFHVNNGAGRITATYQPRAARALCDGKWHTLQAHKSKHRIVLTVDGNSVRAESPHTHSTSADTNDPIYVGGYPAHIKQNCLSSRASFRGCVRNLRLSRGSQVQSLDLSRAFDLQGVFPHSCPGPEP

Results are given in words; binding and its absence hold for the method and conditions named. Some binding calls cover weakened binding; strength is not graded here.

Assay [1] addresses Laminin purified from the EHS sarcoma (UniProt P19137). In words: affinity chromatography on MOA-Sepharose 4B.
Assay [2] has the same target. As to the kind of experiment: affinity chromatography on MOA-Sepharose 4B, PBS wash then elution with 20 mM 1,3-diaminopropane in 0.15 M NaCl, A280 of 1 ml fractions.

B1: Intact native Marasmius oreades agglutinin (MOA) prepared by the method of Example 2 (other)
chain: MSLRRGIYHIENAGVPSAIDLKDGSSSDGTPIVGWQFTPDTINWHQLWLAEPIPNVADTFTLCNLFSGTYMDLYNGSSEAGTAVNGWQGTAFTTNPHQLWTIKKSSDGTSYKIQNYGSKTFVDLVNGDSSDGAKIAGWTGTWDEGNPHQKWYFNRMSVSSAEAQAAIARNPHIHGTYRGYILDGEYLVLPNATFTQIWKDSGLPGSKWREQIYDCDDFAIAMKAAVGKWGADSWKANGFAIFCGVMLGVNKAGDAAHAYNFTLTKDHADIVFFEPQNGGYLNDIGYDSYMAFY
modifications: blocked N-terminus (possibly N-acetyl)
notes: also called native MOA; immobilized MOA
As to B1, the binding result in assay [1] and in assay [2] was “binds” each time.
